Reference: PubChem BioAssay AID280 (DTP/NCI, 2004)
The list is a part of this screen's results and no random one: it is rich in T/C values a quarter to a half above the control, in often repeated tests (any T/C) and in doses without a T/C. Other doses and runs of a compound stand elsewhere. T/C: endpoint of the treated group in % of that of the vehicle group. Some doses have a count of surviving animals in place of a T/C: the source holds a T/C of zero for them, seemingly a mark for toxic or unscored doses. Some survivor counts are full or nearly so, which does not show that the dose was tolerated: the source hardly ever lists a survival T/C far under the control, and the zero likely stands for such cases as well. Survivors were counted at the toxicity check, usually on the fifth day, unless a day is given; later deaths do not show. Schedules are NCI's codes, read here as Q, the interval in days (D) or hours (H), X, the number of doses. Some entries hold several experiments; their values stand side by side, smallest first. For survival time, this PubChem deposit counts one and a half times the control or more as active, and values a quarter to a half above the control carry no call in these data; other NCI protocols may use other cut-offs. Some T/C values carry the count of animals alive at the toxicity check (mostly the fifth day); where none is given, no animal had died by that day.

Test system: nude mice, LOX melanoma ip, survival T/C
Assay: NCI In Vivo Anticancer Drug Screen. Data for tumor model Human Amelanotic Melanoma (LOX) (intraperitoneal) in NU/NU BALB/C (nude) mice
Conditions: T/C endpoint: median survival time, higher T/C = longer survival
Method: The antitumor activity of compounds was measured in mice bearing transplantable tumors. Survival or tumor size were measured and the results are expressed as the measurement made in the treated group (T) divided by the measurement made in the vehicle treated control group (C). The tumor model used in this assay is Human Amelanotic Melanoma (LOX) (intraperitoneal) in NU/NU BALB/C (nude) mice

[1] = dose: 12.5 mg/kg/injection, schedule: Q04DX003 (ip), vehicle: Klucel (hydroxypropylcellulose) (HPC)
[2] = dose: 25.0 mg/kg/injection, schedule: Q04DX003 (ip), vehicle: Klucel (hydroxypropylcellulose) (HPC)
[3] = dose: 75.0 mg/kg/injection, schedule: Q04DX003 (ip), vehicle: Klucel (hydroxypropylcellulose) (HPC)
[4] = dose: 150.0 mg/kg/injection, schedule: Q04DX003 (ip), vehicle: Klucel (hydroxypropylcellulose) (HPC)
[5] = dose: 300.0 mg/kg/injection, schedule: Q04DX003 (ip), vehicle: Klucel (hydroxypropylcellulose) (HPC)
[6] = dose: 400.0 mg/kg/injection, schedule: Q04DX003 (ip), vehicle: Klucel (hydroxypropylcellulose) (HPC)
[7] = dose: 600.0 mg/kg/injection, schedule: Q04DX003 (ip), vehicle: Klucel (hydroxypropylcellulose) (HPC)
[8] = dose: 1200.0 mg/kg/injection, schedule: Q04DX003 (ip), vehicle: Klucel (hydroxypropylcellulose) (HPC)
[9] = dose: 400.0 mg/kg/injection, schedule: Q04DX003 (ip), vehicle: saline with Tween-80
[10] = dose: 200.0 mg/kg/injection, schedule: Q04DX003 (ip), vehicle: saline with Tween-80
[11] = dose: 100.0 mg/kg/injection, schedule: Q04DX003 (ip), vehicle: Klucel (hydroxypropylcellulose) (HPC)

CCS/C(SC)=C(/c1ccccc1)[P+](c1ccccc1)(c1ccccc1)c1ccccc1
survivor count (dose: 6.25 mg/kg/injection, schedule: Q04DX003 (ip), vehicle: Klucel (hydroxypropylcellulose) (HPC)): 4 of 6 on day 10
survivor count [1]: 1 of 6 on day 10
survivor count [2]: 0 of 6 on day 10
survivor count (dose: 50.0 mg/kg/injection, schedule: Q04DX003 (ip), vehicle: Klucel (hydroxypropylcellulose) (HPC)): 0 of 6 on day 10

CO[C@@]12[C@@H]3N[C@@H]3CN1C1=C(C(=O)C(NCC3CCCO3)=C(C)C1=O)[C@@H]2COC(N)=O (stereo not given in full)
T/C (dose: 3.13 mg/kg/injection, schedule: Q04DX003 (ip), vehicle: distilled water + Tween-80): 132 % of control
T/C (dose: 6.25 mg/kg/injection, schedule: Q04DX003 (ip), vehicle: distilled water + Tween-80): 128 % of control [5 of 6 alive on day 10]

COc1cc(C)c(C2NC(=O)c3ccccc3N2)cc1C (stereo not given)
T/C [3]: 135 % of control
T/C [4]: 149 % of control
T/C [5]: 145 % of control

O=C(CCCN1CCC(C(O)c2ccc(F)cc2)CC1)c1ccc(F)cc1 (stereo not given)
survivor count (dose: 100.0 mg/kg/injection, schedule: Q01DX009 (ip), vehicle: saline with Tween-80): 3 of 6 on day 10
survivor count (dose: 200.0 mg/kg/injection, schedule: Q01DX009 (oral), vehicle: saline with Tween-80): 4 of 6 on day 10

CN(C)CCCN=c1c2ccccc2n(C)c2[nH]c(=O)n(C)c(=O)c12
T/C (dose: 25.0 mg/kg/injection, schedule: Q04DX003 (ip), vehicle: saline): 132 % of control
survivor count (dose: 100.0 mg/kg/injection, schedule: Q04DX003 (ip), vehicle: saline): 0 of 6 on day 10
survivor count (dose: 200.0 mg/kg/injection, schedule: Q04DX003 (ip), vehicle: saline): 0 of 6 on day 10

COc1cc(NS(C)(=O)=O)ccc1Nc1c2ccccc2nc2ccccc12
T/C (dose: 10.0 mg/kg/injection, schedule: Q04DX003 (ip), vehicle: other): 126 % of control
survivor count (dose: 20.0 mg/kg/injection, schedule: Q04DX003 (ip), vehicle: other): 0 of 6 on day 10
survivor count (dose: 40.0 mg/kg/injection, schedule: Q04DX003 (ip), vehicle: other): 0 of 6 on day 10

Nc1ncc(C2OC(CO)C(O)C2O)c(=O)[nH]1 (stereo not given)
T/C (dose: 500.0 mg/kg/injection, schedule: Q04DX003 (ip), vehicle: saline): 134 % of control
T/C (dose: 1000.0 mg/kg/injection, schedule: Q04DX003 (ip), vehicle: saline): 144 % of control

CC(C)(C)NC(C1=CC(C)(C)c2ccccc2C1=O)c1ccccc1 (stereo not given)
survivor count [6]: 0 of 6 on day 10

COc1cc(C(=O)N/N=C/c2cccc([N+](=O)[O-])c2)cc(OC)c1OC
survivor count (dose: 300.0 mg/kg/injection, schedule: Q04DX003 (ip), vehicle: saline with Tween-80): 3 of 6 on day 10

O=NN(CCCl)C(=O)Oc1ccc(OC(=O)N(CCCl)N=O)cc1
T/C (dose: 5.0 mg/kg/injection, schedule: Q04DX003 (ip), vehicle: Klucel (hydroxypropylcellulose) (HPC)): 136 % of control
T/C (dose: 10.0 mg/kg/injection, schedule: Q04DX003 (ip), vehicle: Klucel (hydroxypropylcellulose) (HPC)): 130 % of control
survivor count [3]: 0 of 4 on day 10 and 0 of 6 on day 10
survivor count (dose: 80.0 mg/kg/injection, schedule: Q04DX003 (ip), vehicle: Klucel (hydroxypropylcellulose) (HPC)): 1 of 6 on day 10
survivor count [4]: 0 of 4 on day 10 and 0 of 6 on day 10
survivor count [5]: 0 of 4 on day 10 and 0 of 6 on day 10
survivor count [7]: 0 of 4 on day 10 and 0 of 6 on day 10
survivor count [8]: 0 of 4 on day 10 and 0 of 6 on day 10

Cc1cc(N/N=C/c2ccccn2)nc2ccccc12
survivor count [5]: 4 of 6 on day 10
survivor count [7]: 2 of 6 on day 10
survivor count [8]: 2 of 6 on day 10

NC(=O)C1C=CN(Cc2ccccc2)C=C1
survivor count [9]: 0 of 6 on day 10
survivor count (dose: 800.0 mg/kg/injection, schedule: Q04DX003 (ip), vehicle: saline with Tween-80): 0 of 6 on day 10

COc1cccc2c1C(=O)c1c(O)c3c(c(O)c1C2=O)C[C@@](O)(C(=O)CO)C[C@@H]3OC1CC(N)C(O)C(C)O1 (stereo not given in full)
T/C (dose: 0.5 mg/kg/injection, schedule: Q01DX005 (ip), vehicle: water): 139 % of control
T/C (dose: 2.0 mg/kg/injection, schedule: Q01DX005 (ip), vehicle: water): 149 % of control
survivor count (dose: 2.0 mg/kg/injection, schedule: Q01DX015 (ip), vehicle: water): 6 of 6 on day 10
T/C (dose: 2.0 mg/kg/injection, schedule: Q04DX003 (ip), vehicle: saline): 126 % of control
T/C (dose: 2.0 mg/kg/injection, schedule: Q04DX003 (iv), vehicle: saline): 137 % of control
survivor count (dose: 4.0 mg/kg/injection, schedule: Q01DX005 (ip), vehicle: water): 1 of 6 on day 10
survivor count (dose: 4.0 mg/kg/injection, schedule: Q01DX015 (ip), vehicle: water): 0 of 6 on day 10
T/C (dose: 8.0 mg/kg/injection, schedule: Q01DX001 (ip), vehicle: water): 127 % of control
survivor count (dose: 8.0 mg/kg/injection, schedule: Q01DX005 (ip), vehicle: water): 0 of 6 on day 10
survivor count (dose: 8.0 mg/kg/injection, schedule: Q04DX003 (ip), vehicle: water): 4 of 6 on day 10
survivor count (dose: 16.0 mg/kg/injection, schedule: Q01DX001 (ip), vehicle: water): 2 of 6 on day 10
survivor count (dose: 16.0 mg/kg/injection, schedule: Q04DX003 (ip), vehicle: water): 0 of 6 on day 10
survivor count (dose: 16.0 mg/kg/injection, schedule: Q04DX003 (iv), vehicle: saline): 2 of 6 on day 10
survivor count (dose: 32.0 mg/kg/injection, schedule: Q01DX001 (ip), vehicle: water): 2 of 6 on day 10

CC(=O)N(C)c1ccc(Nc2cc(C)[nH]c3ccc4ncnc4c23)cc1
survivor count (dose: 25.0 mg/kg/injection, schedule: Q04DX003 (ip), vehicle: saline with Tween-80): 5 of 5 on day 10
survivor count [10]: 0 of 6 on day 10
survivor count (dose: 278.0 mg/kg/injection, schedule: Q04DX003 (ip), vehicle: saline): 1 of 6 on day 10

O=C([O][Bi]([c]1ccccc1)[c]1ccccc1)c1ccccc1
T/C [2]: 137 % of control
T/C [11]: 137 % of control

CC1/C=C/C=C/CC/C=C/C=C/C=C/C=C/C(OC2OC(C)C(O)C(N)C2O)CC2OC(CC(O)C(O)CCC(O)CC(O)CC(O)CC(=O)OC(C)C(C)C1O)CC(O)C2C(=O)O (stereo not given)
survivor count [10]: 3 of 6 on day 10
survivor count [9]: 1 of 6 on day 10

O=C1c2ccccc2C(=O)c2c1cn1c2Cc2ccccc2C1
survivor count [1]: 3 of 6 on day 10
survivor count [2]: 6 of 6 on day 10
survivor count [11]: 6 of 6 on day 10
survivor count (dose: 200.0 mg/kg/injection, schedule: Q04DX003 (ip), vehicle: Klucel (hydroxypropylcellulose) (HPC)): 6 of 6 on day 10
survivor count [6]: 6 of 6 on day 10

O=C1C2=C(C(=O)c3ncccc31)C1C=CC2CC1 (stereo not given)
T/C (dose: 12.5 mg/kg/injection, schedule: Q04DX003 (ip), vehicle: DMSO): 127 % of control

COc1ccc(S(=O)(=O)N=N/C=C2\C=CC=CN2O)cc1OC
T/C (dose: 90.0 mg/kg/injection, schedule: Q04DX003 (ip), vehicle: saline with Tween-80): 137 % of control [5 of 6 alive on day 10]
T/C (dose: 150.0 mg/kg/injection, schedule: Q04DX003 (ip), vehicle: saline with Tween-80): 137 % of control

COc1cc2c(cc1OC)-c1c3c(cc4c1[C@@H](C2)N(C)CC4)OCO3
T/C (dose: 54.0 mg/kg/injection, schedule: Q04DX003 (ip), vehicle: distilled water + Tween-80 + alcohol): 132 % of control
survivor count (dose: 250.0 mg/kg/injection, schedule: Q04DX003 (ip), vehicle: distilled water + Tween-80 + alcohol): 1 of 6 on day 10
